Laboratory results published in article PMC11758215.
Results are given in words; binding and its absence hold for the method and conditions named. In cells and extracts the contact can be indirect. A yes stands for co-enrichment or nearness to the bait. Other partners may have been found.

Sequences of proteins named here, by UniProt entry; tags and fusion partners are left off.
UniProt Q9CQW9: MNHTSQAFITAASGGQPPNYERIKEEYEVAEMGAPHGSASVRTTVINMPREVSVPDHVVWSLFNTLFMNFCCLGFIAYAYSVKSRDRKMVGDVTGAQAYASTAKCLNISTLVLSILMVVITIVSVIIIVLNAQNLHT

Molecular target: T1, S100 calcium-binding protein A11 (mouse (endogenous in 4T1)) (UniProt P50543)
T1 sequence: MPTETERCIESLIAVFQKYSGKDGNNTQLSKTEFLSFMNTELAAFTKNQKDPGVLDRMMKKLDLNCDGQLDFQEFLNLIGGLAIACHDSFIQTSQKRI
Experiment: affinity purification with mass spectrometry; 4T1 cell lysates incubated with S100A11 antibodies, protein A/G agarose beads, washed, eluted, LC-MS/MS (Orbitrap Eclipse), search against UniProtKB Mus musculus, FDR 1%

binding: binds
Substance: IFITM3 (from UniProt Q9CQW9 1-137)
